Values of other authors as cited in patent US10702603B2 (priority 2012, dated 2020).
At least one structure is not confirmed: it was looked up by name or label, or the drawing left a doubt.

Conditions: cited from earlier work

C[C@H](CCC(=O)NCCC[N+](C)(C)CC(O)CS(=O)(=O)[O-])[C@H]1CC[C@H]2[C@@H]3[C@H](O)C[C@@H]4C[C@H](O)CC[C@]4(C)[C@H]3C[C@H](O)[C@]12C (some centres unmarked) [CHAPSO, 3-([3-Cholamidopropyl]dimethylammonio)-2-hydroxy-1-propanesulfonate]
Aggregation No.: 11

CCCCCCCCCC[N+](C)(C)CCCS(=O)(=O)[O-] [ZWITTERGENT 3-10, n-Decyl-N,N-dimethyl-3-ammonio-1-propanesulfonate]
Aggregation No.: 41
